Assay [1] addresses VEGF165 N-terminal domain (NTD) (human). Kind of assay: ELISA; HBD, NTD or HBD mutants coated on 96-well plates, blocked with BSA; soluble αvβ3 (1 μg/mL) in HEPES-Tyrode buffer + 1 mM MnCl2, 1 h room temperature; bound αvβ3 detected with anti-β3 mAb AV10; binding to HBD inhibited by mAb 7E3 and cation-dependent; both purified. On the technique in general: In an ELISA, binding on a coated surface is turned into a signal by an enzyme label.

By UniProt entry, the sequences of proteins in these tests, tags left out. Where a name states a change or a piece, a line headed by the entry shows the natural chain unless it says otherwise.
UniProt P06756: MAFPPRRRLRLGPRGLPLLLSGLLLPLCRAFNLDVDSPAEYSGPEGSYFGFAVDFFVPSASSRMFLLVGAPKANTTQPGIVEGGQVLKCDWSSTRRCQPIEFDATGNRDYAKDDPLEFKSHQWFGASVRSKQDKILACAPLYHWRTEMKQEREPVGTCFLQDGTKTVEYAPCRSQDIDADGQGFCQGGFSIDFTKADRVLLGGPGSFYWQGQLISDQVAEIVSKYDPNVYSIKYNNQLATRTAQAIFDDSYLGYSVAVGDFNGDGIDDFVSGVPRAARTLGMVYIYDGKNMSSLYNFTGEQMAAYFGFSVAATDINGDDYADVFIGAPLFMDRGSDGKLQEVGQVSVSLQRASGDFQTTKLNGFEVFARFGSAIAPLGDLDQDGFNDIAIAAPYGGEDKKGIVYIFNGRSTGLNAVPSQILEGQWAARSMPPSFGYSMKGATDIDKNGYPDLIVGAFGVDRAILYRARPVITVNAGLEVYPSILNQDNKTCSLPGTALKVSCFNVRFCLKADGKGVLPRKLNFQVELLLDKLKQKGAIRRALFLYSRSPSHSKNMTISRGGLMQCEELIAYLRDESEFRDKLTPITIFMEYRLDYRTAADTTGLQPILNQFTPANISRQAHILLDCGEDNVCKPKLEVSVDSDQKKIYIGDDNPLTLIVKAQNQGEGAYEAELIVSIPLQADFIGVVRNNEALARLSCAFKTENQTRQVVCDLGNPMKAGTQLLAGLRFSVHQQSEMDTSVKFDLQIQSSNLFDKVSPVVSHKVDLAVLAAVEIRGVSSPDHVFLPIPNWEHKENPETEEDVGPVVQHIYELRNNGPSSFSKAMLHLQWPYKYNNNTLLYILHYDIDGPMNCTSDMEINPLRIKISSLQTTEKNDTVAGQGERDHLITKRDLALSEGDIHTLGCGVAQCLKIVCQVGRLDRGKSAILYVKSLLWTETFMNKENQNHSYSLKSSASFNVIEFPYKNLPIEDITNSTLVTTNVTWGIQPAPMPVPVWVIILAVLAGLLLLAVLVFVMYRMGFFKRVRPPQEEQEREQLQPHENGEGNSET

The target of assay [2] is VEGF165 heparin-binding domain (HBD), wild type (human). Kind of assay: ELISA; as a1, but the coated HBD was heat-treated; both purified.

Results are given in words; binding and its absence hold for the method and conditions named.

Regarding “recombinant soluble integrin αvβ3 (from UniProt P06756 31-987; P05106 27-718) (complex)”, the binding entry in assay [1] was “no binding (tested: soluble αvβ3 1 μg/mL)”; in assay [2] it was “no binding (condition: heat treatment of the HBD)”.

The values are drawn from publication PMC11128890.
